{"source": "patent US5688767A", "about": "“Treatment of endotoxin-associated disorders with cationic peptides” (priority 1996, dated 1997)", "key": {"S. typhimurium": {"system": "S. typhimurium", "format": "cell-based, Salmonella typhimurium", "description": "(§1) The minimum inhibitory concentrations of (MIC) of CEME, CEMA and melittin were determined for a number of different bacteria (Table 2). Briefly, cells were grown overnight at 37° C. in LB-S (Luria broth without any salt supplement) and diluted one in 10,000 in the same medium to give concentrations of about 10^4 to 10^5 CFU/ml. The broth dilutions were set up in a 96 well microtiter plate by putting 200 μl of LB-S containing the initial concentration of antibiotic or compound in column 1 and 100 μl of the same medium in columns 2-12. The compounds were diluted by taking 100 μl of broth from column 1 and mixing it with column 2, resulting in a one in two dilution. This was continued to column 10. Finally, 10 μl of bacteria were pipetted into columns 1-11, and the plates incubated overnight at 37° C. The next day the plates were scored for growth in the wells, and the MIC determined.\n(§2) Bacteria included the Bort strain of E. coli (Bortolussi, et al., Inf. Immun., 25:293, 1979) that was originally derived from a case of neonatal meningitis, and which is therefore considered a relevant pathogenic strain to study, and the 0111:B4 strain of E. coli (kindly provided by Dr. D. Morrison) which is a standard source of endotoxin. (Kelly, et al., Inf. Immun., 59:4491, 1991). In addition, P. aeruginosa PA01 strain H103, P. aeruginosa M2, P. aeruginosa K799, Eschericha coli UB 1005, Enterobacter cloacae 218S, Salmonella typhimurium MS7953s, Klebsiella pneumoniae ATCC 13883, Xanthomonas maltophilia ATCC 13637, and Acinetobacter calcoacetious 8193 were employed. LPS was obtained from E. coli Bort by the technique of Westphal and Jann, (Westphal, et al., Acad. Press, Inc. NY., 5:83) and from P. aeruginosa H103 by the method of Darveau and Hancock, (Darveau, et al., J. Bacteriol, 155:831, […]). E. coli 0111:B4 LPS was purchased from Sigma."}, "P. aeruginosa": {"system": "P. aeruginosa", "format": "cell-based, Pseudomonas aeruginosa", "description": "as §1, §2"}, "[1]": {"system": "P. aeruginosa H309 Whole Cells", "assay": "DPx binding inhibition using whole cells", "parameters": "species or system Pseudomonas aeruginosa", "settings": "DPx at 90-100% binding saturation, average of at least three trials", "description": "For DPx binding inhibition assays using whole cells instead of purified LPS, H309 cells were prepared the same way as for the lysozyme lysis assay. The assay consisted of 10 μl of cells at an OD600 of 0.5, 990 μl of 5 mM HEPES pH 7.2 and 5 mM KCN, and the concentration of DPx that gave 90-100% binding saturation. […] Compounds were titrated in, and I50 values were determined as described above."}, "LPS-induced endotoxemia": {"system": "LPS-induced endotoxemia", "assay": "Protection from lethal LPS endotoxicity in galactosamine-sensitized mouse endotoxic shock model", "format": "in vivo, mice", "description": "The ability of CEME and CEMA to protect against LPS-induced endotoxemia was assessed in vivo. Mice (8-10 weeks old) were injected intraperitoneally with […] D-galactosamine (Dgal) to sensitize them to LPS according to the mode of Galanos (Galanos, et al., Proc. Natl. Acad. Sci., USA, 76:5939-5943, 1979), followed by 0, 50, 100, or 200 μg CEME or CEMA in 100 μl. Immediately afterwards LPS (10 or 20 μg) in 100 μl was injected.\nMice are naturally resistant to LPS. […] Endotoxic shock was induced by intraperitoneal injection of 10 or 20 μg of E. coli 0111:B4 LPS in phosphate-buffered saline (PBS), pH 7.2 into galactosamine-sensitized 8-10 week old female CD-1 mice (Galanos, C., supra; Freudenberg, M. A., Inf. Immun., 51:891, 1986). In experiments involving peptides, 50-200 μg in 100 μl sterile water injected at separate intraperitoneal sites immediately before or after LPS injection. In survival experiments, survival was monitored at 24 to 48 hours post injection. In experiments measuring TNF, blood was withdrawn by cardiac puncture at timed intervals up to 8 hours after the injections and allowed to clot prior to measurement of TNF in the serum.\nIn contrast when CEMA was injected at around the same time as LPS, but at separate site in the peritoneum, it protected mice in a dose dependant fashion (FIG. 17). Endotoxemia was induced with 10 μg of E. coli 0111:B4 LPS injected into the peritoneum. Subsequently 50, 100, or 200 μg (2.2, 4.4, and 8.7 mg/kg) of CEME or CEMA was injected into a separate site in the peritoneum. […] mice were assessed for each experimental point. Mortality was observed after 24 hrs."}, "[2]": {"settings": "LPS 20 ug and peptide 200 ug incubated together for 45 minutes at 37° C. before injection"}}, "note": "Read-outs that look alike come from different tables or passages of the source. Part of at least one peptide drawing is inferred or uncertain, most often the ends.", "data": [{"smiles": "CC[C@H](C)[C@H](NC(=O)CNC(=O)[C@@H](NC(=O)[C@H](CCCCN)NC(=O)[C@H](CCCCN)NC(=O)[C@H](Cc1ccccc1)NC(=O)[C@H](CC(C)C)NC(=O)[C@H](CCCCN)NC(=O)[C@H](Cc1c[nH]c2ccccc12)NC(=O)[C@@H](N)CCCCN)[C@@H](C)CC)C(=O)NCC(=O)N[C@@H](C)C(=O)N[C@H](C(=O)N[C@@H](CC(C)C)C(=O)N[C@@H](CCCCN)C(=O)N[C@H](C(=O)N[C@@H](CC(C)C)C(=O)N[C@H](C(=O)N[C@H](C(=O)NCC(=O)N[C@@H](CC(C)C)C(=O)N1CCC[C@H]1C(=O)N[C@@H](C)C(=O)N[C@@H](CC(C)C)C(=O)N[C@H](C(=O)N[C@@H](CO)C(=O)O)[C@@H](C)CC)[C@@H](C)O)[C@@H](C)O)C(C)C)C(C)C", "note": "[CEME]", "values": [{"measurement": "MIC", "setting": "S. typhimurium; Salmonella typhimurium MS7953s", "value": 4, "unit": "µg/mL"}, {"measurement": "MIC", "setting": "S. typhimurium; strain C587, Parent of C590", "value": 2.4, "unit": "µg/mL"}, {"measurement": "MIC", "setting": "S. typhimurium; strain C590, Defensin sensitive", "value": 0.06, "unit": "µg/mL"}, {"measurement": "MIC", "setting": "P. aeruginosa; Pseudomonas aeruginosa H103", "value": 16, "unit": "µg/mL"}, {"measurement": "MIC", "setting": "P. aeruginosa; Pseudomonas aeruginosa K799", "value": 4.8, "unit": "µg/mL"}, {"measurement": "MIC", "setting": "P. aeruginosa; strain H187, Parent of H188", "value": 4.8, "unit": "µg/mL"}, {"measurement": "MIC", "setting": "P. aeruginosa; strain H188, Antibiotic sensitive", "value": 1.2, "unit": "µg/mL"}, {"measurement": "MIC", "setting": "P. aeruginosa; strain H309, Wildtype", "value": 2.4, "unit": "µg/mL"}, {"measurement": "I50, Value in μg/ml", "setting": "[1]", "value": "2.11 ± 0.11", "unit": "µg/mL"}, {"measurement": "IC50", "setting": "[1]; read-out: I50, Value in μM", "value": "0.78 ± 0.04", "unit": "µM"}, {"measurement": "survival", "setting": "LPS-induced endotoxemia; 10 μg E. coli 0111:B4 LPS, peptide 50 μg", "value": 37, "unit": "%"}, {"measurement": "survival", "setting": "LPS-induced endotoxemia; 10 μg E. coli 0111:B4 LPS, peptide 100 μg", "value": 40, "unit": "%"}, {"measurement": "survival / mice protected", "setting": "LPS-induced endotoxemia; 10 μg E. coli 0111:B4 LPS, peptide 200 μg (8.7 mg/kg)", "value": 45, "unit": "%"}, {"measurement": "% Mortality", "setting": "LPS-induced endotoxemia; LPS 10 ug, peptide 50 ug", "value": 63, "unit": "%"}, {"measurement": "dead/total", "setting": "LPS-induced endotoxemia; LPS 10 ug, peptide 50 ug", "value": "5/8"}, {"measurement": "% Mortality", "setting": "LPS-induced endotoxemia; LPS 10 ug, peptide 100 ug", "value": 60, "unit": "%"}, {"measurement": "dead/total", "setting": "LPS-induced endotoxemia; LPS 10 ug, peptide 100 ug", "value": "6/10"}, {"measurement": "% Mortality", "setting": "LPS-induced endotoxemia; LPS 10 ug, peptide 200 ug", "value": 55, "unit": "%"}, {"measurement": "dead/total", "setting": "LPS-induced endotoxemia; LPS 10 ug, peptide 200 ug", "value": "6/11"}, {"measurement": "% Mortality", "setting": "LPS-induced endotoxemia; [2]", "value": 0, "unit": "%"}, {"measurement": "dead/total", "setting": "LPS-induced endotoxemia; [2]", "value": "0/3"}, {"measurement": "% Mortality", "setting": "LPS-induced endotoxemia; LPS 20 ug, peptide 200 ug", "value": 71, "unit": "%"}, {"measurement": "dead/total", "setting": "LPS-induced endotoxemia; LPS 20 ug, peptide 200 ug", "value": "5/7"}, {"measurement": "protection, in words", "setting": "LPS-induced endotoxemia; LPS and CEME incubated together for 45 minutes at 37° C. and then injected simultaneously", "value": "completely protective"}, {"measurement": "protective effect", "setting": "LPS-induced endotoxemia; high dose (20 μg) of endotoxin", "value": 29, "unit": "%"}, {"measurement": "protection", "setting": "LPS-induced endotoxemia; preincubation of CEME with LPS prior to injection", "value": 100, "unit": "%"}]}]}
